For 60 compounds, cell number change and AC50 results are on record in PubChem BioAssay AID2685 (National Center for Advancing Translational Sciences (NCATS), 2010).

The assay in a line: qHTS Assay for Lipid Storage Modulators in Drosophila S3 Cells.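 On cell number change: cells counted by Cell Tracker Red CMTPX staining in the red channel.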 Particulars: BODIPY lipid droplet fluorescence, 18-24 h; for cell number change: measured here: cell count max response, cells fed with added oleic acid. The method, boiled down: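 Laser-scanning cytometry quantifies lipid droplet accumulation (500–530 nm total intensity; droplet/cell object ratio) in oleic acid-fed (400 uM added) Drosophila S3 cells treated with a concentration series. 20 uM Triacsin C defined 100% inhibition.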
Background: In qHTS, concentration-response curves come from the screen itself.

Where [1] appears, read: measured here: lipid fluorescence (Fed channel) AC50, cells fed with added oleic acid.
[2] abbreviates: measured here: cell number channel AC50, cells fed with added oleic acid.

The list shows a part of the results. The main result of the screen is listed elsewhere. These columns were measured beside it and carry no call. Most of these compounds were active or inconclusive in the main read-out, so they are no random draw. Words in brackets tell the shape of the fitted curve; partial curves, single points and poor fits give uncertain potencies.

Broadly, the AC50 is the concentration giving half of the maximal activity seen. A lower AC50 goes with greater potency.

Take `N#C/C(=C/c1cccs1)c1nc2ccccc2[nH]1`: the cell number change is 8.15%. The AC50 under setting [1] is 0.517 µM [rising, full curve].

For `COc1ccc(OC(=O)COc2ccc(C)cc2)cc1`, the cell number change is 16.3%. Further, the half-maximal activity concentration (AC50) under setting [1] was 2.31 µM [rising, single point].

For `COc1ccccc1N1CCN(C(=O)/C=C/c2ccc(C)cc2)CC1`, the cell number change is -36.6%. The concentration at half-maximal activity (AC50) under setting [2] is 3.66 µM [rising, partial curve].

Take `CSc1ccc(C(c2c(C(=O)O)[nH]c3ccccc23)c2c(C(=O)O)[nH]c3ccccc23)cc1`: the cell number change was found to be 5.11%.

Consider `N#CCC(=O)Nc1cc(C(F)(F)F)ccc1N1CCOCC1`, for which the cell number change was found to be 3.69%. Also, the concentration at half-maximal activity (AC50) under setting [1] is 0.082 µM [falling, single point].

`CC(C)N(C(C)C)S(=O)(=O)c1ccc(N2CCc3ccccc3C2)nc1`: the cell number change was -11.1%. The half-maximal activity concentration (AC50) under setting [1] is 29.1 µM [rising, single point].

For the compound `COc1ccc(CNC(=O)COC(=O)CO/N=C(\C)c2ccc3c(c2)OCO3)cc1`, the cell number change was -14.3%. Besides, the concentration at half-maximal activity (AC50) under setting [1] is 0.651 µM [falling, partial curve, poor fit].

Take `Nc1c(C(=O)NC2CCCCC2)c2nc3ccccc3nc2n1/N=C/c1ccco1`: the cell number change was -15.4%. Further, the concentration at half-maximal activity (AC50) under setting [1] was 16.4 µM [rising, single point].

Turning to `CC(C)CN1C(=O)CC(Sc2ccccc2C(=O)O)C1=O` (stereo not drawn), the cell number change is -19.4%. Further, under setting [1], the half-maximal activity concentration (AC50) was 1.84 µM [falling, full curve].

Turning to `Cn1cnc(S(=O)(=O)N2CCN(C(c3ccccc3)c3ccccc3)CC2)c1`, the cell number change was -6.12%. For the same compound, the AC50 under setting [1] is 0.0164 µM [falling, full curve].

As for `COc1ccccc1-n1c(=O)oc2ccc(Cl)cc2c1=O`, the cell number change was determined as 10.1%. Besides, under setting [1], the AC50 is 29.1 µM [falling, partial curve].

On to `CC(=O)c1ccc(NC(=O)C(C)OC(=O)CCN=C2NS(=O)(=O)c3ccccc32)cc1` (stereo not drawn), for which the cell number change is -7.36%. The AC50 under setting [1] is 29.1 µM [rising, single point].

With `N#Cc1c(N)nc(SCC(=O)NCCc2ccccc2)c(C#N)c1-c1cccs1`, the cell number change was -25.6%. The AC50 under setting [1] was 18.4 µM [falling, single point].

As to `O=C(O)/C(=C\c1ccc(-c2ccccc2[N+](=O)[O-])o1)c1ccccc1`, the cell number change was 24.9%.

In the case of `COc1ccc(CN2CSC(=S)N(Cc3ccccc3)C2)cc1`, the cell number change is 0.824%. Under setting [1], the AC50 is 6.51 µM [rising, single point].

With `CCN(CC)c1ccc(NC(=O)c2cnc3ccccn3c2=O)c(C)c1`, the cell number change was found to be 4.38%.

With `Cc1ccc(-c2nn(-c3ccccc3)cc2/C=N/NC(=O)CSc2nnc(C)n2-c2ccccc2)cc1`, the cell number change is -21.5%. In addition, the AC50 under setting [1] was 16.4 µM [falling, single point].

`CC(=O)N1CCC(C(=O)NC2CCCc3c2cnn3-c2cc(F)cc(F)c2)CC1` (stereo not drawn): the cell number change was determined as 43.2%. Moreover, the AC50 under setting [2] was 8.2 µM [rising, partial curve]. Moreover, the AC50 under setting [1] was 29.1 µM [rising, single point].

In the case of `CCOC(=O)C(C(C)=O)=C1SC2CS(=O)(=O)CC2S1` (stereo not drawn), the cell number change turned out to be 0.612%. For the same compound, the AC50 under setting [1] was 0.00517 µM [falling, full curve].

In the case of `COc1ccc(Cl)cc1NC(=O)CN(C)Cc1cccs1`, the cell number change came to 1.59%. For the same compound, the concentration at half-maximal activity (AC50) under setting [1] was 6.51 µM [falling, single point].

As for `CC(C)CNC(=S)NNC(=O)c1ccccc1OC(F)F`, the cell number change worked out at 49.7%. In addition, the half-maximal activity concentration (AC50) under setting [2] is 1.16 µM [rising, full curve].

For the compound `Cc1ccc(N(C(=O)Cc2cccs2)C(C(=O)NC2CCCC2)c2ccncc2)cc1` (stereo not drawn), the cell number change was -18.4%. Under setting [1], the concentration at half-maximal activity (AC50) was 29.1 µM [falling, single point].

With `CC(=O)Nc1ccc(C(=O)Nc2nc(-c3cc(C)n(Cc4ccccc4)c3C)cs2)cc1`, the cell number change turned out to be 21.2%. The AC50 under setting [1] is 0.291 µM [rising, partial curve, poor fit].

Turning to `Cc1ccc(O)c(NC(=O)c2cc(-c3cccs3)on2)c1`, the cell number change stood at 30.4%. Moreover, the concentration at half-maximal activity (AC50) under setting [2] is 20.6 µM [rising, partial curve, poor fit].

Turning to `NC(=O)c1ccc(Oc2ccc3c(c2)CCC3)c([N+](=O)[O-])c1`, the AC50 under setting [1] is 3.66 µM [falling, partial curve].

As for `CN(C)N(Cc1ccccc1)C(=O)C(O)(c1ccccc1)c1ccccc1`, the cell number change is -11.6%. The concentration at half-maximal activity (AC50) under setting [1] is 16.4 µM [falling, single point].

As to `COc1ccccc1N1CC(O)=C(c2nc3ccccc3s2)C1=N`, the cell number change is -23.1%. In addition, under setting [1], the AC50 was 0.58 µM [rising, single point].

Consider `CCCCCN(C(=O)CCC(=O)OCCOc1cccc(Cl)c1)c1c(N)n(CCCC)c(=O)[nH]c1=O`, for which the cell number change was 25%. Also, the half-maximal activity concentration (AC50) under setting [2] is 4.11 µM [rising, full curve, poor fit]. For the same compound, the AC50 under setting [1] was 6.51 µM [falling, single point].

Turning to `Cc1cc(C)c(OCC(=O)OCC(=O)N2CCc3ccccc3C2)c(C)c1`, under setting [1], the concentration at half-maximal activity (AC50) was 29.1 µM [rising, single point].

With `CC(C)(C)c1ccc(-c2nc(NCc3cccnc3)c3ccccc3n2)cc1`, the cell number change was -38.2%. Further, under setting [2], the AC50 is 16.4 µM [falling, single point]. For the same compound, under setting [1], the AC50 was 7.31 µM [falling, partial curve].

As to `CCc1cccc(C)c1NS(=O)(=O)c1cc(Br)cnc1N`, the cell number change came to 6.6%. Moreover, under setting [1], the AC50 is 29.1 µM [rising, single point].

In the case of `C/C=C/c1ccc(OCC(O)CN(C)Cc2ccc(SC)cc2)c(OC)c1` (stereo not drawn), the cell number change is -29%. Besides, the AC50 under setting [1] was 23.1 µM [falling, single point].

`C=CCc1cc(/C=C2/NC(=O)N(CC)C2=O)cc(OCC)c1OCc1ccc(C(=O)O)cc1`: the cell number change worked out at 30.5%. Besides, the half-maximal activity concentration (AC50) under setting [2] was 6.51 µM [rising, partial curve]. Besides, the AC50 under setting [1] was 7.31 µM [rising, partial curve].

As to `CN(C)C(CNC(=O)c1ccc2ccccc2c1)c1ccco1` (stereo not drawn), the cell number change was 57%.

In the case of `CN(CC(=O)Nc1ccc(F)c(F)c1F)C(=O)C1CC(=O)N(C2CCCC2)C1` (stereo not drawn), the cell number change was -63.1%. Also, the half-maximal activity concentration (AC50) under setting [2] is 8.2 µM [falling, partial curve].

Regarding `COCc1cc(C)nc2sc(C(=O)N3CCCCC3)c(N)c12`, the concentration at half-maximal activity (AC50) under setting [1] is 0.184 µM [rising, full curve, poor fit].

Regarding `O=C(NCc1ccco1)Nc1ccc(Br)cc1Cl`, under setting [2], the AC50 was 4.11 µM [rising, single point].

Turning to `C/C(=N\NC(=O)c1nnn(-c2nonc2N)c1C)c1ccc(-c2ccccc2)cc1`, the cell number change was 5.41%.

Take `O=C(COC(=O)COc1ccc(Cl)cc1)Nc1ccc2c(c1)OCCO2`: the cell number change is -41.5%. Moreover, under setting [2], the AC50 was 18.4 µM [falling, single point]. The concentration at half-maximal activity (AC50) under setting [1] is 18.4 µM [rising, single point].

`COC(=O)[C@H](Cc1ccccc1)NC(=O)Nc1ccc(C)cc1`: the cell number change is -23.9%. Besides, the concentration at half-maximal activity (AC50) under setting [1] was 4.61 µM [falling, full curve, poor fit].

As to `COc1cccc(N2CCN(C(=O)CN(c3ccc(C)cc3)S(=O)(=O)c3c(C)n[nH]c3C)CC2)c1`, the cell number change came out at 10.7%.

As for `CC(=O)c1ccc(NC(=O)C2CC(c3ccc(F)cc3)=NO2)cc1` (stereo not drawn), the cell number change was -6.69%. Besides, the AC50 under setting [1] is 0.58 µM [rising, full curve, poor fit].

`COC(=O)c1ccc(COC(=O)CNC(=O)c2ccc(C)s2)cc1`: the cell number change was -14.2%. Besides, under setting [1], the AC50 is 29.1 µM [falling, single point].

`CCOc1cc(C2NN=C(c3ccccc3)S2)ccc1OCc1ccc(F)cc1` (stereo not drawn): the cell number change was 51.9%. Under setting [2], the AC50 is 1.64 µM [rising, full curve]. Besides, under setting [1], the half-maximal activity concentration (AC50) is 3.26 µM [rising, partial curve].

As for `CCc1ccc(C)c(OC(=O)c2cncc(Br)c2)c1`, the cell number change came to 3.52%. Further, the AC50 under setting [1] was 29.1 µM [rising, single point].

Consider `COc1ccc2[nH]c(=O)c(CN(Cc3cccnc3)C(=O)Nc3ccccc3)cc2c1`, for which the AC50 under setting [2] was 0.146 µM [rising, full curve, poor fit] and the AC50 under setting [1] is 0.517 µM [rising, partial curve].

In the case of `CCN(CC(=O)Nc1cccc(OC)c1)C(=O)c1ccncc1`, the cell number change worked out at 3.23%. For the same compound, under setting [1], the AC50 is 0.651 µM [rising, single point].

`COc1ccc(CCNC(=O)C2c3ccccc3C(=O)N2CCC(C)C)cc1OC` (stereo not drawn): the cell number change was found to be 6.38%. The half-maximal activity concentration (AC50) under setting [2] was 0.231 µM [rising, full curve, poor fit].

Consider `COC(OC)C1(C)C(C#N)=C(N)Oc2c1c(=O)oc1ccccc21` (stereo not drawn), for which the cell number change amounted to 27.8%. Also, the half-maximal activity concentration (AC50) under setting [2] was 4.61 µM [rising, full curve, poor fit]. The AC50 under setting [1] was 1.64 µM [rising, full curve, poor fit].

Regarding `COc1cccc(SCC2CSc3nc4ccccc4c(=O)n32)c1` (stereo not drawn), the cell number change is 8.17%. For the same compound, under setting [1], the concentration at half-maximal activity (AC50) was 0.651 µM [rising, single point].

Take `O=C(CN1CCC(C(O)(c2ccccc2)c2ccccc2)CC1)Nc1ccccc1`: the cell number change was -24.1%. Moreover, the half-maximal activity concentration (AC50) under setting [2] is 0.58 µM [falling, full curve]. Besides, under setting [1], the half-maximal activity concentration (AC50) is 29.1 µM [falling, single point].

Turning to `O=C(NCc1ccccc1Cl)c1cc2ccccc2oc1=O`, the cell number change is 5.28%. Moreover, the concentration at half-maximal activity (AC50) under setting [1] was 29.1 µM [rising, single point].

Turning to `NC(=S)Nc1ccc2cc[nH]c2c1`, the cell number change turned out to be 5.61%. Under setting [1], the AC50 was 0.411 µM [falling, single point].

For the compound `COc1cc(CC(=O)OCC(=O)Nc2ncc(Cl)cc2Cl)cc(OC)c1OC`, the cell number change was -4.93%. Further, the half-maximal activity concentration (AC50) under setting [1] is 2.31 µM [rising, full curve].

With `O=C(Cc1ccc(F)cc1)Nc1ccc2[nH]ncc2c1`, the cell number change was -0.293%.

On to `NC(=O)NCc1cccs1`, for which the cell number change is 75.5%. Besides, under setting [2], the AC50 is 2.91 µM [rising, full curve]. Further, the concentration at half-maximal activity (AC50) under setting [1] was 29.1 µM [rising, partial curve].

Regarding `CCn1c(COc2ccccc2)nnc1SCC(=O)NCc1ccco1`, the cell number change is 4.04%. Besides, the concentration at half-maximal activity (AC50) under setting [1] is 1.16 µM [falling, full curve].

In the case of `O=C(COc1ccccc1[N+](=O)[O-])OCC(=O)N1CCC(Cc2ccccc2)CC1`, the cell number change is 4.56%. Further, the AC50 under setting [1] was 0.517 µM [falling, single point].

Consider `OCCC1CN(CC2CCCCC2)CCN1CC1CCCCC1` (stereo not drawn), for which the cell number change was determined as 3.94%. Moreover, under setting [1], the half-maximal activity concentration (AC50) was 16.4 µM [rising, partial curve].

Regarding `COc1ccc(/C=N/NS(=O)(=O)c2ccc(C)cc2)cc1OC(=O)c1ccccc1`, the cell number change was -8.67%. In addition, the AC50 under setting [1] was 0.92 µM [rising, partial curve].
